For at least one compound, name, drawing or mass did not settle the structure.
Tests used:
MCAo Tiere = assay: Modified Porsolt forced swim test after MCAo/reperfusion; assay type: in vivo, Mäuse; details: Citalopram 13 mg/kg i.p. daily from day 7 after MCAo until end of study; MCAo vs sham animals; Figur 2
ischämischen Striatum = assay: Neurochemistry: tissue monoamine levels by HPLC with electrochemical detection after MCAo; assay type: in vivo, Mäuse

CN(C)CCCC1(c2ccc(F)cc2)OCc2cc(C#N)ccc21 (stereo not drawn) [Citalopram, 1-[3-(Dimethylamino)propyl]-1-(4-fluorphenyl)-1,3-dihydroisobenzofuran-5-carbonitril]
Latenzen bis zum ersten Treibenlassen (latency to float), "depressive" Phänotyp (MCAo Tiere): gänzlich verhindert
Gewebsspiegel von Dopamin im ischämischen Striatum (ischämischen Striatum; Citalopram 13 mg/kg i.p. daily from day 7 after MCAo, compared with untreated MCAo animals, Figur 2): nicht aber Citalopambehandelte MCAo Tiere, signifikant niedrigere Gewebsspiegel von Dopamin
Korrelation zwischen Dopaminspiegeln im ipsilateralen (ischämischen) Striatum und Verhalten (ischämischen Striatum; legend of Fig. 6): protektive Wirkung
